Experimental data published in article PMC12843137, “Fine-Tuning Side Chain Substitutions: Impacts on the Lipophilicity–Solubility–Permeability Interplay in Macrocyclic Peptides” (Marine Drugs, 2025).

Tested on: Caco-2 cell monolayer
Experiment: Caco-2 monolayer integrity, Lucifer Yellow leakage
Format: in vitro ADME
Conditions: Lucifer Yellow leakage after transport, compound 5 µM

First: C[C@H]1O[C@@H](O[C@H]2[C@@H](O)C[C@H](O[C@H]3[C@@H](O)C[C@H](O[C@H]4CC[C@@]5(C)[C@H](CC[C@@H]6[C@@H]5C[C@@H](O)[C@]5(C)[C@@H](C7=CC(=O)OC7)CC[C@]65O)C4)O[C@@H]3C)O[C@@H]2C)C[C@H](O)[C@@H]1O [Digoxin, reference compound]
Second: C[C@@H]1C(=O)[C@](C)(O)C(=O)NCC(=O)N[C@H](CN2CCN(C)CC2)/C=C/C(=O)N(C)CC(=O)O[C@H]1CCCCCc1cn(CCCCCCCNc2cccc3c2CN(C2CCC(=O)NC2=O)C3=O)nn1 (stereo partly drawn) [Compound 40]
The “LY Leakage A-B” value of the first is lower: 0.21% for the first, 0.22% for the second.

Going from `CC1C(=O)C(C)(O)C(=O)NCC(=O)NC(CN2CCN(C)CC2)C=CC(=O)N(C)CC(=O)OC1CCCCc1cn(CCCCCCCCNC(=N)N)nn1` (stereo not drawn) [Compound 31] to `C[C@@H]1C(=O)[C@](C)(O)C(=O)NCC(=O)N[C@H](CN2CCN(C)CC2)/C=C/C(=O)N(C)CC(=O)O[C@H]1CCCCCc1cn(CCCCCCCCCC(=O)O)nn1` [Compound 39], the “LY Leakage A-B” value rises from 0.20% to 0.56%.

First: CCCCOc1ccc(-c2ccc(-c3ccc(Cn4cc(CCCCC[C@H]5OC(=O)CN(C)C(=O)/C=C/[C@@H](CN6CCN(C)CC6)NC(=O)CNC(=O)[C@@](C)(O)C(=O)[C@H]5C)nn4)cc3)cc2)cc1 [Compound 29]
Second: CCCCCCCCCCCCCC1OC(=O)CN(C)C(=O)C=CC(CN2CCN(C)CC2)NC(=O)CNC(=O)C(C)(O)C(=O)C1C (stereo not drawn) [BE-NMP]
The “LY Leakage A-B” value of the first is lower: 0.21% for the first, 0.32% for the second.

First: C[C@H]1O[C@@H](O[C@H]2[C@@H](O)C[C@H](O[C@H]3[C@@H](O)C[C@H](O[C@H]4CC[C@@]5(C)[C@H](CC[C@@H]6[C@@H]5C[C@@H](O)[C@]5(C)[C@@H](C7=CC(=O)OC7)CC[C@]65O)C4)O[C@@H]3C)O[C@@H]2C)C[C@H](O)[C@@H]1O [Digoxin, reference compound]
Second: C[C@@H]1C(=O)[C@](C)(O)C(=O)NCC(=O)N[C@H](CN2CCN(C)CC2)/C=C/C(=O)N(C)CC(=O)O[C@H]1CCCCCc1cn(CCCCCCCNc2cccc3c2CN(C2CCC(=O)NC2=O)C3=O)nn1 (stereo partly drawn) [Compound 40]
The “LY Leakage B-A” value of the first is higher: 0.22% for the first, 0.18% for the second.

Compared with `CC1C(=O)C(C)(O)C(=O)NCC(=O)NC(CN2CCN(C)CC2)C=CC(=O)N(C)CC(=O)OC1CCCCc1cn(CCCCCCCCNC(=N)N)nn1` (stereo not drawn) [Compound 31], `C[C@@H]1C(=O)[C@](C)(O)C(=O)NCC(=O)N[C@H](CN2CCN(C)CC2)/C=C/C(=O)N(C)CC(=O)O[C@H]1CCCCCc1cn(CCCCCCCCCC(=O)O)nn1` [Compound 39] is lower in “LY Leakage B-A” value: 0.18% for the first, 0.17% for the second.

First: CCCCOc1ccc(-c2ccc(-c3ccc(Cn4cc(CCCCC[C@H]5OC(=O)CN(C)C(=O)/C=C/[C@@H](CN6CCN(C)CC6)NC(=O)CNC(=O)[C@@](C)(O)C(=O)[C@H]5C)nn4)cc3)cc2)cc1 [Compound 29]
Second: CCCCCCCCCCCCCC1OC(=O)CN(C)C(=O)C=CC(CN2CCN(C)CC2)NC(=O)CNC(=O)C(C)(O)C(=O)C1C (stereo not drawn) [BE-NMP]
The “LY Leakage B-A” value of the first is lower: 0.17% for the first, 0.20% for the second.
